Data as given in PubChem BioAssay AID1508597 (Cure First, 2020).

Assay: 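Survival screen with siRNA in ovarian cancer cells derived from patients, with or without rucaparib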 (primary screen)
System: human ovarian carcinoma lines grown from tumours: OCI-P5x (papillary serous) and OCI-C5x (clear cell)
Reagent: siRNA pool against human genes, 1.25 pmol siRNA per well
Timing: 72 h or 96 h, depending on the cell culture
Conditions: rucaparib 20 µM (about IC30) or vehicle, present until read-out
Rucaparib or vehicle: Rucaparib
Cell line: OCI-P5x (serous)
Measurement: 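Luminescent ATP-based viability assay read 72 or 96 h after transfection, depending on culture, given as normalised percent viability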
Scale: viability, normalised: higher = more viable cells remaining
Active means: 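Active when normalised viability falls below 80 percent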
Meaning of the calls: active = viability under 80%; inactive = viability 80% or more
Shown is a random part of the about 2,100 reagents, in one setting of the screen. 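Calls flag viability under 80% in either arm, not effects specific to rucaparib; the reference for percent is not stated.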 A number with no mark means an inactive call. Some reagents were tested in more than one well and are listed for each. Not given: the 100% reference.

Gene,PubChem SID,technical replicate,"viability, normalised (%)"
ROCK2,SID405527712,1,74.3 (active)
ROCK2,SID405527712,2,105
ROCK2,SID405527712,3,81.9
PAPSS2,SID405527888,1,141
PAPSS2,SID405527888,2,145
PAPSS2,SID405527888,3,102
WHR1,SID405527715,1,107
WHR1,SID405527715,2,53.9 (active)
WHR1,SID405527715,3,86.3
DNER,SID405528232,1,80.1
DNER,SID405528232,2,76 (active)
DNER,SID405528232,3,75.2 (active)
AEBP2,SID405527953,1,68 (active)
AEBP2,SID405527953,2,65.9 (active)
AEBP2,SID405527953,3,66.4 (active)
BMPR1B,SID405527618,1,83.9
BMPR1B,SID405527618,2,75.7 (active)
BMPR1B,SID405527618,3,86.8
BRWD3,SID405528052,1,71.2 (active)
BRWD3,SID405528052,2,71.7 (active)
BRWD3,SID405528052,3,77.5 (active)
TDP2,SID405526725,1,46 (active)
TDP2,SID405526725,1,65.4 (active)
TDP2,SID405526725,2,43.3 (active)
TDP2,SID405526725,2,82.3
TDP2,SID405526725,3,50.4 (active)
TDP2,SID405526725,3,43.6 (active)

Single entries from above.
BRWD3 [SID405528052], technical replicate 1, viability, normalised (%): 71.2 (active)
Entry for AEBP2 [SID405527953], technical replicate 3 under “viability, normalised (%)”: 66.4 (active)
Value of DNER [SID405528232], technical replicate 3 in “viability, normalised (%)”: 75.2 (active)
